From patent US20150313898

Chains of the proteins cited; added tags and fusions are not shown. Chains listed by the source or under a name are the forms on record and can include a tag or linker.
UniProt P18858, whole entry: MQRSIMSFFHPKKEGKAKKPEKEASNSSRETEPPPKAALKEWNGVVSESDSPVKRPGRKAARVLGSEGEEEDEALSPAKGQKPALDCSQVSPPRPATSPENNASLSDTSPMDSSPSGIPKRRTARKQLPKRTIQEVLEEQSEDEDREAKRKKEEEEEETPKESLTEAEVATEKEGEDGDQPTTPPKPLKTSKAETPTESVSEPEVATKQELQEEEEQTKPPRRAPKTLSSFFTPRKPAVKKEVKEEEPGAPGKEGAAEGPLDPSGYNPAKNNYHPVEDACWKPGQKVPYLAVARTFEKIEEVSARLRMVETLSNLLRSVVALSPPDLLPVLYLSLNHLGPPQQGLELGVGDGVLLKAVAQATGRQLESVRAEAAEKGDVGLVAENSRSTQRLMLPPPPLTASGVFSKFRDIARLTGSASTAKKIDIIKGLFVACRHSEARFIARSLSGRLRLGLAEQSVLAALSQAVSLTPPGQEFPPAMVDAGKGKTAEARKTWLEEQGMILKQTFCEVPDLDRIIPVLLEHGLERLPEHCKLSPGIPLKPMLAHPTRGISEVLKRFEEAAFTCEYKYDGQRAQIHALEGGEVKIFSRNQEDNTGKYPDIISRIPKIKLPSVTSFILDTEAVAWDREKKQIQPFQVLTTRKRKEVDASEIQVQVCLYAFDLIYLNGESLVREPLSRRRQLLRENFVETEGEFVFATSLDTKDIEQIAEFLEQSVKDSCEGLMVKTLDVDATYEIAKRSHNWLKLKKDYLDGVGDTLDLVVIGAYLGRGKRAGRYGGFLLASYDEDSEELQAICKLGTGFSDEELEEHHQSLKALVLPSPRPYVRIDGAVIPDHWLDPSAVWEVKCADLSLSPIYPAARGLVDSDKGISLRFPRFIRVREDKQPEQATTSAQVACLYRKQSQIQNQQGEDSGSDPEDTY
DNA ligase IV/XRCC4 complex (hLigIV/XRCC4) (Homo sapiens), one chain, as listed by the source, chain 2 of 2: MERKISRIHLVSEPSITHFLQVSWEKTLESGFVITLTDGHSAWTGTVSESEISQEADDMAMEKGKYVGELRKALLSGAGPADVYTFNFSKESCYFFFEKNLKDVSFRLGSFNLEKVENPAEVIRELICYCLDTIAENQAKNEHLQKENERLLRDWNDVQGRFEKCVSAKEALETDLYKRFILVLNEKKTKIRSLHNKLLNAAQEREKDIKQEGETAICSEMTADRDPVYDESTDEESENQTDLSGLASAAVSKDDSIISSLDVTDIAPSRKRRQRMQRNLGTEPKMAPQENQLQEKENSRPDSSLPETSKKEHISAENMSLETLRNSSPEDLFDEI
DNA ligase IV/XRCC4 complex (hLigIV/XRCC4) (Homo sapiens), one chain, as listed by the source, chain 1 of 2: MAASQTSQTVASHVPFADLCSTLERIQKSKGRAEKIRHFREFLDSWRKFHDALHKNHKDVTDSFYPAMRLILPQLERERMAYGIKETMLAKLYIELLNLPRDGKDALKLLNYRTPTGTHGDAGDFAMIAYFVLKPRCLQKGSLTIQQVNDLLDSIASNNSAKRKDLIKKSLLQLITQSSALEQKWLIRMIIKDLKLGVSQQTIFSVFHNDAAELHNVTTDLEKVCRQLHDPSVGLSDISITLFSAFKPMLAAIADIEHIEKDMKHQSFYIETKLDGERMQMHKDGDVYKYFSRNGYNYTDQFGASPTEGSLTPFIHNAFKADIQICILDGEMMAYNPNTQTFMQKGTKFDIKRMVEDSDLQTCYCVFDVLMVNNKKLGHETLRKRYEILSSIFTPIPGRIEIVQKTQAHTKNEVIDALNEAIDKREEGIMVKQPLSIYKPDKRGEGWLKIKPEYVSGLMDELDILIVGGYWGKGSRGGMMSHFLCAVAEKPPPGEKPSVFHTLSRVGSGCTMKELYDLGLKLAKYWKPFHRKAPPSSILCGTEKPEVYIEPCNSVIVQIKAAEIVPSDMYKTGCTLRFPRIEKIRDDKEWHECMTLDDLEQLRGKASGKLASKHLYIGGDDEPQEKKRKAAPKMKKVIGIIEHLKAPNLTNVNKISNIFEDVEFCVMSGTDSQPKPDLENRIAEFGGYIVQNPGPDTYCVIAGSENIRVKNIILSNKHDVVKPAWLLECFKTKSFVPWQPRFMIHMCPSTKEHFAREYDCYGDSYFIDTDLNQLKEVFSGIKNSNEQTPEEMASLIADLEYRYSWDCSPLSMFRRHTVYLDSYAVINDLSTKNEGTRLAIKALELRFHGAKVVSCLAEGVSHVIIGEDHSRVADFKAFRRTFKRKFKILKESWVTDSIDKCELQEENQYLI

How the values were obtained:
[1] = target: DNA ligase I (hLigI) (Homo sapiens) (UniProt P18858); assay: activity assay; settings: gel-based ligation, 25 C 30 min; inhibited by compounds 67, 82, 189; purified recombinant protein; label: 5'-32P on 18-mer
[2] = system: T1, DNA ligase III beta (hLigIIIβ) (Homo sapiens); assay: activity assay; settings: gel-based ligation, 25 C 30 min; inhibited by compounds 67 and 189; purified recombinant protein; label: 5'-32P on 18-mer
T1 sequence (looked up, limits assumed): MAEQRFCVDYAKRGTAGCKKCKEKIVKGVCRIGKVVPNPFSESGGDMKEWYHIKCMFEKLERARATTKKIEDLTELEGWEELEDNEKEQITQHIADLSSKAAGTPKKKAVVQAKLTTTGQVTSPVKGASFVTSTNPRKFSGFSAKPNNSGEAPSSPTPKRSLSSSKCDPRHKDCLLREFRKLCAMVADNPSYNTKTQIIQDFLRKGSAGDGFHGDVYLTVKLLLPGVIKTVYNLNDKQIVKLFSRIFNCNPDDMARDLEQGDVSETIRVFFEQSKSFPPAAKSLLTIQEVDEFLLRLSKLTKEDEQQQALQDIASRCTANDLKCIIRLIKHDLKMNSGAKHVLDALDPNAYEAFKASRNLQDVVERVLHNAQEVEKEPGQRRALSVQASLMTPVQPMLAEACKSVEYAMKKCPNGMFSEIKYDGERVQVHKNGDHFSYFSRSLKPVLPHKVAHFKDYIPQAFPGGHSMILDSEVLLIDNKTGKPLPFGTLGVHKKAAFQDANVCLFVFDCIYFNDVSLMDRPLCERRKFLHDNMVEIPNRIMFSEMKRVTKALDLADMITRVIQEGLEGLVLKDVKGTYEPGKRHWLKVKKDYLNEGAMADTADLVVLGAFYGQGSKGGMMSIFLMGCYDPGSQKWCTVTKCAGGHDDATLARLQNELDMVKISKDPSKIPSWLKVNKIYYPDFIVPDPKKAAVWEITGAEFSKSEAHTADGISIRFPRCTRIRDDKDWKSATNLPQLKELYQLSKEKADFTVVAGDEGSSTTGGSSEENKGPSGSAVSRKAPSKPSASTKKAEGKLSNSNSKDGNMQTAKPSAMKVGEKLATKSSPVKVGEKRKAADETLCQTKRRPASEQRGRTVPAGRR

[3] = system: DNA ligase IV/XRCC4 complex (hLigIV/XRCC4) (Homo sapiens); assay: activity assay; settings: gel-based ligation, 25 C 30 min; inhibited by compound 189; purified recombinant protein; label: 5'-32P on 18-mer
[4] = target: DNA ligase I (hLigI) (Homo sapiens) (UniProt P18858); assay: EMSA; settings: dideoxy residue at 3' terminus of nick; ligation buffer, 25 C, 120 min; DNA-protein complex on 12% native gel; L189 or L82 added in some lanes; purified recombinant protein; label: labeled

Row | Sequence | activity on this sequence [1] | activity on this sequence [2] | activity on this sequence [3] | binding result [4]
1 | CGCCAGGGTTTTCCCAGTCACGACC / GTAAAACGACGGCCAGTG | active | active | active | 
2 | CGCCAGGGTTTTCCCAGTCACGACC / GTAAAACGACGGCCAGTG [nonligatable nicked linear duplex] |  |  |  | binds

Construct, isoform or probe ends are uncertain for at least one entry. For some of these results: Protein sequences can lack the tags named with them.
